The supplement of paper PMC10849652
Some of the results follow.

The chains behind the UniProt entries cited, without tags or fusion partners. Where a name states a change or a piece, a line headed by the entry shows the natural chain unless it says otherwise.
UniProt O15431: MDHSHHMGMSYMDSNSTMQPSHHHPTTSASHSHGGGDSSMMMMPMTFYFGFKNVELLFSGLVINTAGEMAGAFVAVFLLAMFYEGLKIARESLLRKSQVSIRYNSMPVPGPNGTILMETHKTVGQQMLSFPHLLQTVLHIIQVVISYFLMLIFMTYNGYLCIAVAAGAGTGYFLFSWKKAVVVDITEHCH
UniProt Q6P1M0: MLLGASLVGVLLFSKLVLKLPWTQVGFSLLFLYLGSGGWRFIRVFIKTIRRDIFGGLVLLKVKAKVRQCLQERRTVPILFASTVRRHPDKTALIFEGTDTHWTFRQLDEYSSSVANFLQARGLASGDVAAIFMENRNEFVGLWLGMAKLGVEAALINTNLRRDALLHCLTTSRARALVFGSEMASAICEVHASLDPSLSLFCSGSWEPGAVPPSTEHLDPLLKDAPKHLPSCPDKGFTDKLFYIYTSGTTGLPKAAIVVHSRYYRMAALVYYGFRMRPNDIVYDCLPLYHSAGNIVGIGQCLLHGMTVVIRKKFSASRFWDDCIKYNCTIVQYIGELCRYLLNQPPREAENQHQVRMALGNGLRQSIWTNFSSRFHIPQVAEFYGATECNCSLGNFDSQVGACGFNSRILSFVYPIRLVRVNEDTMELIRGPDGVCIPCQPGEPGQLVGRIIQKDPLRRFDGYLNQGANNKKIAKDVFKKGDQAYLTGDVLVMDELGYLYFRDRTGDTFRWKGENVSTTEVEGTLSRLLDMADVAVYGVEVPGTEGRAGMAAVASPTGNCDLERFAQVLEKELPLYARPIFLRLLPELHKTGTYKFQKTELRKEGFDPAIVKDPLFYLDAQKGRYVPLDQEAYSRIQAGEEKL
UniProt Q02978: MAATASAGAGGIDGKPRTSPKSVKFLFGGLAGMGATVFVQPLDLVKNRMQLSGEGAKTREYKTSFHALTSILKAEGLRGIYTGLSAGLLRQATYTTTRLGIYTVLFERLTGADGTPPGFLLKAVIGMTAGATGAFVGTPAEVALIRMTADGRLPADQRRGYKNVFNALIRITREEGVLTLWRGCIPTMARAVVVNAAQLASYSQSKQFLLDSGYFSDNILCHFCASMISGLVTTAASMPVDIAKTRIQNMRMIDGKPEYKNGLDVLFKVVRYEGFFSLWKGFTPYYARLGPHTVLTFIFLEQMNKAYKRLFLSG
UniProt Q9Y289: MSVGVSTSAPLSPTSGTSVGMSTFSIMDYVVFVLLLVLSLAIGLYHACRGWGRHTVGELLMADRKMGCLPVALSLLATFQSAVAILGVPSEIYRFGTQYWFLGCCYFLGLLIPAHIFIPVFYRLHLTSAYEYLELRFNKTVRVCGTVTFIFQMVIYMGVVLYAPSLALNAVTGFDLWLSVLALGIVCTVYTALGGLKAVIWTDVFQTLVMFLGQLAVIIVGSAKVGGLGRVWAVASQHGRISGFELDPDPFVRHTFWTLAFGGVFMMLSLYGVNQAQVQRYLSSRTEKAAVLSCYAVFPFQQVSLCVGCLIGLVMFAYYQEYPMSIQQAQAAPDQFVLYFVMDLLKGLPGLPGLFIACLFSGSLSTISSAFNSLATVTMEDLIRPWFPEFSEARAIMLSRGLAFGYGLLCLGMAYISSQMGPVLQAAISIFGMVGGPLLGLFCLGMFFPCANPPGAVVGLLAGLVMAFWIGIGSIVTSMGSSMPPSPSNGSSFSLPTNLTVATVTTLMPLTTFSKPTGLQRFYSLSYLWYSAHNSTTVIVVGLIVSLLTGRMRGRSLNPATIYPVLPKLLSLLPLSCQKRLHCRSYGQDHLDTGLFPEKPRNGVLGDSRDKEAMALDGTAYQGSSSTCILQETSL
UniProt Q9Y6M7: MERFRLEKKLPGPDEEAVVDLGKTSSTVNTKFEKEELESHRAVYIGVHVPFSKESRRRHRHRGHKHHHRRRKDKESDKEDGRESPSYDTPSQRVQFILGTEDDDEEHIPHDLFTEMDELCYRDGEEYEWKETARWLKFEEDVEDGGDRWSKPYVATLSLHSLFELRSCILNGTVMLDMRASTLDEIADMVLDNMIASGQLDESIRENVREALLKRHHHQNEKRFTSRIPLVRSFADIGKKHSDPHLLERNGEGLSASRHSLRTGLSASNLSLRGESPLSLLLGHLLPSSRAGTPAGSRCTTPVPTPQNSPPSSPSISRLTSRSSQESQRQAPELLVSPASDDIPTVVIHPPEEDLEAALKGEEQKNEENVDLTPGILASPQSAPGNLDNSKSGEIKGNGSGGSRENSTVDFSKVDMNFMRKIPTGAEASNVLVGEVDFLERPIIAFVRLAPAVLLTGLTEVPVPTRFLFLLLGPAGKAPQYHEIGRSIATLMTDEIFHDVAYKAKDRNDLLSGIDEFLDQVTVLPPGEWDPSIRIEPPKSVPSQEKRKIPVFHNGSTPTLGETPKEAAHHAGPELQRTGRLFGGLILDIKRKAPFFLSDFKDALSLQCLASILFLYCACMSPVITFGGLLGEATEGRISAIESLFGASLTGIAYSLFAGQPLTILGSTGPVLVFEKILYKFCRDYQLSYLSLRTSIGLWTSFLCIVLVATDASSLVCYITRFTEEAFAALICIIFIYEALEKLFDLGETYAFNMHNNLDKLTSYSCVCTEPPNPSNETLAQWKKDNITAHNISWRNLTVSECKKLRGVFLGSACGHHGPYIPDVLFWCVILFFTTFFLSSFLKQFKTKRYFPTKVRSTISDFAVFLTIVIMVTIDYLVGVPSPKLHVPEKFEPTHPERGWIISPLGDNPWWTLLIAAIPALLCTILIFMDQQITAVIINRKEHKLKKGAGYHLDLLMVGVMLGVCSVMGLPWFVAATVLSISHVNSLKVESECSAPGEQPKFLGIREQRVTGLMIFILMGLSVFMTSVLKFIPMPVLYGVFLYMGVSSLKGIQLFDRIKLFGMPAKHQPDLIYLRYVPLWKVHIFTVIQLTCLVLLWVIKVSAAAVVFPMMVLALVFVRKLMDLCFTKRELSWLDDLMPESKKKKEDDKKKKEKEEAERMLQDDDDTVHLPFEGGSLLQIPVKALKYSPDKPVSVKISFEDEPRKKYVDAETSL
UniProt Q5SVS4: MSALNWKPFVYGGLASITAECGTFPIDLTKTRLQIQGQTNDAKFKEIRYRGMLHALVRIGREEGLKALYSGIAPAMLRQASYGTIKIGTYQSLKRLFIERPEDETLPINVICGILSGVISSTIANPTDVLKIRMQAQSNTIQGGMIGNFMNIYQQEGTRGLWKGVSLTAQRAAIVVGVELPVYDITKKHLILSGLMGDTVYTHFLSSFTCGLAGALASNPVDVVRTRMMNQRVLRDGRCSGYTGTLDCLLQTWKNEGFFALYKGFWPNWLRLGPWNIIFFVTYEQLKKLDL
UniProt P51531, whole entry, looked up: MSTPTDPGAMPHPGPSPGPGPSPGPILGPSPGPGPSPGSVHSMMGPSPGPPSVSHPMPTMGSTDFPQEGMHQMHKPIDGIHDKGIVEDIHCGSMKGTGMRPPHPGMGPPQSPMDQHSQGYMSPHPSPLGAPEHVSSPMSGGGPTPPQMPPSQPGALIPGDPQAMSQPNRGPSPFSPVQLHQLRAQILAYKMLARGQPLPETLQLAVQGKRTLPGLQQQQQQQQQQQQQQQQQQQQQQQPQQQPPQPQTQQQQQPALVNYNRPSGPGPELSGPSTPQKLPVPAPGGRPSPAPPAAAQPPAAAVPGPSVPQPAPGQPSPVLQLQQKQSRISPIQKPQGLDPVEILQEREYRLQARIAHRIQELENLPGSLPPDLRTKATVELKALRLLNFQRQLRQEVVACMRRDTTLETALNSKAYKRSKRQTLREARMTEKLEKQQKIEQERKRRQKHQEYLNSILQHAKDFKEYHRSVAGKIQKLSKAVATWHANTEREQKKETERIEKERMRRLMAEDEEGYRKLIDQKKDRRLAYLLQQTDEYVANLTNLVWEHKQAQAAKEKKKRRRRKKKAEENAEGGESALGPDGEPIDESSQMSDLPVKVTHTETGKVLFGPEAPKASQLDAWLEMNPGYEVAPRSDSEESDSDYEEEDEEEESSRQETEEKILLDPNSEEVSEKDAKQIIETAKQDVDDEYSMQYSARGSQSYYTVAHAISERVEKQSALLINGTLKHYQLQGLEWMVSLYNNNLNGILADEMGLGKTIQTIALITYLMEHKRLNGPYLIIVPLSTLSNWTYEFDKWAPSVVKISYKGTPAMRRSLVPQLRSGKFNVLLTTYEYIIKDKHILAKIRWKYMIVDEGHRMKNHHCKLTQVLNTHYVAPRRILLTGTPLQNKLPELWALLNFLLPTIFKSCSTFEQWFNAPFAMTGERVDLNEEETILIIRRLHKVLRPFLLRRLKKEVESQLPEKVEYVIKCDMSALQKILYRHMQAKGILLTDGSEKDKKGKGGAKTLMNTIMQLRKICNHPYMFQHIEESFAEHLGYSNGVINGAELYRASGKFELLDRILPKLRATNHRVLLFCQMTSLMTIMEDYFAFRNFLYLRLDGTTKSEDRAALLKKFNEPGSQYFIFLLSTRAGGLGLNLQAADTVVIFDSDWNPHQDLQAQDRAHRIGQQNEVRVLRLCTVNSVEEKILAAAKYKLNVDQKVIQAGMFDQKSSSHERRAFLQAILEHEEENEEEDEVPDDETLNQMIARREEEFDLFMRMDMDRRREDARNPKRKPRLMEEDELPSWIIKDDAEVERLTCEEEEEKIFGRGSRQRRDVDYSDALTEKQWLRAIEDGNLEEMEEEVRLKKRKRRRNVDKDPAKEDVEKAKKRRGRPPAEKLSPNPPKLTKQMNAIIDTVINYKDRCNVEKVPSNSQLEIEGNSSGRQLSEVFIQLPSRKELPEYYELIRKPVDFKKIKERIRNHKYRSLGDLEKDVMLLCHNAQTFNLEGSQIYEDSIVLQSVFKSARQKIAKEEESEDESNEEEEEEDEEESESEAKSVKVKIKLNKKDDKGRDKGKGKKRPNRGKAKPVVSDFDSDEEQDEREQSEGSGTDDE
UniProt Q9H2H9: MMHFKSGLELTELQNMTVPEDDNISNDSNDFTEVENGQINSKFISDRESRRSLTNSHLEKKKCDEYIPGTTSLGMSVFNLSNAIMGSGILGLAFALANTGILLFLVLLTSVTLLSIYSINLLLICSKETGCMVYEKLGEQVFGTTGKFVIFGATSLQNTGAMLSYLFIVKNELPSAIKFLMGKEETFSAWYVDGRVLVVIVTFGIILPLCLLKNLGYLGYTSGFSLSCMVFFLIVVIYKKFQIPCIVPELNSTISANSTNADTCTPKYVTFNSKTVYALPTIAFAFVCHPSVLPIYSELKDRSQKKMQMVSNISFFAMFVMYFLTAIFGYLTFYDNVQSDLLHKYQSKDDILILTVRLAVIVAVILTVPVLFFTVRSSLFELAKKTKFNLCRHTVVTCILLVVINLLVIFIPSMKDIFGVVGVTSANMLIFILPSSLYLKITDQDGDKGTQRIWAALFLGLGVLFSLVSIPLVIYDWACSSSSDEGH
UniProt Q9H0C2: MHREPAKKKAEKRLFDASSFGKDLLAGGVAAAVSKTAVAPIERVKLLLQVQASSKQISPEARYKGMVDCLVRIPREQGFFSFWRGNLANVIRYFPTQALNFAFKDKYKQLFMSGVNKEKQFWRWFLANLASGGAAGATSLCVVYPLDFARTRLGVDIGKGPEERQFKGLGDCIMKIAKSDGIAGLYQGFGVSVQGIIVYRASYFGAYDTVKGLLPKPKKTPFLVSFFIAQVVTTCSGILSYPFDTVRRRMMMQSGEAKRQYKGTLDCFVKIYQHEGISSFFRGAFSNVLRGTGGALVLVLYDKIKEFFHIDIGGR
UniProt Q9UJS0: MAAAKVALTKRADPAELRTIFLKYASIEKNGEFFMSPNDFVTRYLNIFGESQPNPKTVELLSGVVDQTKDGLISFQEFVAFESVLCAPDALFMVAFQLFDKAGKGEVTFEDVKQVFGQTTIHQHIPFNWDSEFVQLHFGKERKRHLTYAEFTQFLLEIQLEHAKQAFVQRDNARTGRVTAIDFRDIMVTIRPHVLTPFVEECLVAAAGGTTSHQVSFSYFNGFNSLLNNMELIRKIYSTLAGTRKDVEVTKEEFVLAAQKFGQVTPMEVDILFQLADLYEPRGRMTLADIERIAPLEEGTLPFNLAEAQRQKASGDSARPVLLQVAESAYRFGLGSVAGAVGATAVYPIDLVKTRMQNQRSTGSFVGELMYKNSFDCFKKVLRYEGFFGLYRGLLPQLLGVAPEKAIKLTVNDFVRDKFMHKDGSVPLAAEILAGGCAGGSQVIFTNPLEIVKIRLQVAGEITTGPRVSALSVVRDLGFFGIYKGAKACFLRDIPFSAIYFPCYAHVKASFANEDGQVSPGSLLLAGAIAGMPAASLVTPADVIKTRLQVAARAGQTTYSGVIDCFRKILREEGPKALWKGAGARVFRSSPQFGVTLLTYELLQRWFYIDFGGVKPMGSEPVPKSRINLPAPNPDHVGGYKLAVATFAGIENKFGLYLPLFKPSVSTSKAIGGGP

Columns and labels:
Experiment in all cases: log2 fold change, soluble protein after heating vs DMSO (PISA); higher = thermal stabilisation; K562 lysate, 10 uM; active = over 0.2 and 3.5 SD of the protein, either way, in both replicates (recomputed)
nilotinib = compound: Cc1cn(-c2cc(NC(=O)c3ccc(C)c(Nc4nccc(-c5cccnc5)n4)c3)cc(C(F)(F)F)c2)cn1 [nilotinib]
Method in brief: (§1)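 Log-two fold change in thermal stability relative to solvent controls is reported from duplicates. For each sample, crude K562 extract from dounce-homogenised pellets in PBS pH 7.4 with 1 mM MgCl2, at 1 mg/mL protein, was treated with 10 μM compound for 30 min. Aliquots heated for 3 min across 48°C-58°C were pooled, brought to 0.5% NP-40 at 4°C and cleared at 21,000xg for 90 min. The supernatant was quantified by TMTpro 16plex LC-MS/MS with channel sums equalised.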

[1] = compound: Cc1nc(Nc2n[nH]c3c2CN(C(=O)N[C@H](CN(C)C)c2ccccc2)C3(C)C)c2sccc2n1
Method in brief: as §1

dasatinib = compound: Cc1nc(Nc2ncc(C(=O)Nc3c(C)cccc3Cl)s2)cc(N2CCN(CCO)CC2)n1 [dasatinib]
Method in brief: as §1

[2] = compound: Cc1ncc(-c2ccnc(Nc3ccc(S(C)(=O)=O)cc3)n2)n1C(C)C
Method in brief: as §1

[3] = compound: Cn1cc(-c2ccc3c(c2)CCN3C(=O)Cc2cccc(C(F)(F)F)c2)c2c(N)ncnc21
Method in brief: as §1

quisinostat = compound: Cn1cc(CNCC2CCN(c3ncc(C(=O)NO)cn3)CC2)c2ccccc21 [quisinostat]
Method in brief: as §1

tipifarnib = compound: Cn1cncc1[C@@](N)(c1ccc(Cl)cc1)c1ccc2c(c1)c(-c1cccc(Cl)c1)cc(=O)n2C [tipifarnib]
Method in brief: as §1

[4] = compound: NC(=O)Nc1cc(-c2cccc(F)c2)sc1C(=O)N[C@H]1CCCNC1
Method in brief: as §1

[5] = compound: NC(=O)c1cnc(N[C@@H]2CCCC[C@@H]2N)nc1Nc1cccc(-n2nccn2)c1
Method in brief: as §1

[6] = compound: NC1(c2ccc(-c3nc4ccn5c(=O)[nH]nc5c4cc3-c3ccccc3)cc2)CCC1
Method in brief: as §1

[7] = compound: NCC(=O)Nc1ccc(-n2nc(C(F)(F)F)cc2-c2ccc3c(ccc4ccccc43)c2)cc1
Method in brief: as §1

vorinostat = compound: O=C(CCCCCCC(=O)Nc1ccccc1)NO [vorinostat]
Method in brief: as §1

silmitasertib = compound: O=C(O)c1ccc2c(c1)nc(Nc1cccc(Cl)c1)c1ccncc12 [silmitasertib]
Method in brief: as §1

[8] = compound: O=C1NC(=O)C(c2cnc3ccccn23)=C1c1cn2c3c(cc(F)cc13)CN(C(=O)N1CCCCC1)CC2
Method in brief: as §1

entospletinib = compound: c1cn2cc(-c3ccc4cn[nH]c4c3)nc(Nc3ccc(N4CCOCC4)cc3)c2n1 [entospletinib]
Method in brief: as §1

Measured: log2 fold change

SLC25A25 isoform 3 (UniProt Q6KCM7)
inactive: nilotinib 0.027 | [1] -0.015 | dasatinib 0.03 | [2] -0.063 | [3] 0.031 | quisinostat -0.038 | tipifarnib -0.006 | [4] 0.021 | [5] 0.007 | [6] -0.025 | [7] 0.016 | vorinostat 0.054 | silmitasertib 0.02 | [8] -0.036 | entospletinib 0.001

SLC29A2 (UniProt Q14542)
inactive: nilotinib 0.083 | [1] 0.095 | dasatinib 0.029 | [2] 0.058 | [3] 0.037 | quisinostat -0.242 | tipifarnib 0.048 | [4] 0.088 | [5] -0.037 | [6] -0.021 | [7] -0.045 | vorinostat 0.139 | silmitasertib 0.117 | [8] 0.031 | entospletinib -0.06

SLC4A1AP (UniProt Q9BWU0)
inactive: nilotinib -0.018 | [1] 0.04 | dasatinib 0.017 | [2] 0.002 | [3] -0.002 | quisinostat -0.022 | tipifarnib -0.024 | [4] -0.021 | [5] -0.012 | [6] 0.009 | [7] 0.011 | vorinostat -0.007 | silmitasertib -0.03 | [8] 0.01 | entospletinib -0.01

SLC31A1 (UniProt O15431)
inactive: nilotinib -0.021 | [1] 0.02 | dasatinib 0.177 | [2] 0.052 | [3] -0.158 | quisinostat -0.007 | tipifarnib -0.015 | [4] -0.011 | [5] -0.189 | [6] -0.047 | [7] 0.062 | vorinostat 0.015 | silmitasertib 0.028 | [8] -0.096

Pulled one by one from above, two records:
SLC25A25 isoform 3 (UniProt Q6KCM7)
inactive: nilotinib 0.027 | [1] -0.015 | dasatinib 0.03 | [2] -0.063 | [3] 0.031 | quisinostat -0.038 | tipifarnib -0.006 | [4] 0.021 | [5] 0.007 | [6] -0.025 | [7] 0.016 | vorinostat 0.054 | silmitasertib 0.02 | [8] -0.036 | entospletinib 0.001

SLC31A1 (UniProt O15431)
inactive: nilotinib -0.021 | [1] 0.02 | dasatinib 0.177 | [2] 0.052 | [3] -0.158 | quisinostat -0.007 | tipifarnib -0.015 | [4] -0.011 | [5] -0.189 | [6] -0.047 | [7] 0.062 | vorinostat 0.015 | silmitasertib 0.028 | [8] -0.096

Additional records follow:

SLC27A4 (UniProt Q6P1M0)
active: vorinostat -0.257
inactive: nilotinib -0.061 | [1] 0.002 | dasatinib 0.026 | [2] -0.036 | [3] 0.048 | quisinostat -0.123 | tipifarnib 0.096 | [4] 0.036 | [5] -0.023 | [6] 0.036 | [7] -0.127 | silmitasertib 0.016 | [8] -0.002 | entospletinib 0.07

SLC25A20 (UniProt O43772)
inactive: nilotinib 0.018 | [1] 0.004 | dasatinib 0.036 | [2] 0.026 | [3] 0.053 | quisinostat -0.055 | tipifarnib -0.025 | [4] -0.015 | [5] -0.029 | [6] 0.005 | [7] -0.041 | vorinostat 0.046 | silmitasertib -0.012 | [8] 0.012 | entospletinib 0

SLC25A11 (UniProt Q02978)
inactive: nilotinib -0.02 | [1] 0.019 | dasatinib 0.031 | [2] 0.007 | [3] -0.025 | quisinostat -0.042 | tipifarnib -0.01 | [4] 0.014 | [5] 0 | [6] -0.035 | [7] 0.031 | vorinostat 0.051 | silmitasertib 0.053 | [8] -0.025 | entospletinib -0.003

SMAD4 (UniProt Q13485)
inactive: nilotinib 0.032 | [1] -0.011 | dasatinib -0.014 | [2] -0.021 | [3] -0.023 | quisinostat -0.028 | tipifarnib 0.022 | [4] -0.009 | [5] 0.01 | [6] -0.025 | [7] 0.023 | vorinostat 0.015 | silmitasertib -0.017 | [8] 0.014 | entospletinib -0.008

SLC5A6 (UniProt Q9Y289)
inactive: nilotinib -0.009 | [1] -0.031 | dasatinib 0.028 | [2] 0.013 | [3] -0.004 | quisinostat -0.004 | tipifarnib 0.054 | [4] 0.023 | [5] -0.068 | [6] 0.012 | [7] 0.033 | vorinostat 0.135 | silmitasertib -0.106 | [8] 0.02 | entospletinib 0.029

SLC4A7 isoform 7 (UniProt Q9Y6M7)
inactive: nilotinib 0.022 | [1] -0.023 | dasatinib 0.03 | [2] 0.016 | [3] 0.02 | quisinostat -0.069 | tipifarnib -0.035 | [4] 0.01 | [5] -0.012 | [6] -0.023 | [7] -0.025 | vorinostat 0.186 | silmitasertib 0 | [8] 0.003 | entospletinib -0.037

SLC25A30 (UniProt Q5SVS4)
inactive: nilotinib 0.044 | [1] -0.037 | dasatinib -0.023 | [2] 0.046 | [3] -0.038 | quisinostat -0.092 | tipifarnib -0.216 | [4] 0.024 | [5] -0.015 | [6] -0.021 | [7] -0.082 | vorinostat -0.008 | silmitasertib -0.032 | [8] -0.021

SMARCA2 (UniProt P51531)
inactive: nilotinib 0.005 | [1] -0.05 | dasatinib -0.034 | [2] 0.047 | [3] 0.037 | quisinostat -0.004 | tipifarnib -0.048 | [4] 0.018 | [5] 0.023 | [6] 0.02 | [7] 0.022 | vorinostat -0.045 | silmitasertib 0.044 | [8] 0.025 | entospletinib -0.03

SLC2A1 (UniProt P11166)
inactive: nilotinib -0.008 | [1] 0.012 | dasatinib 0.006 | [2] -0.059 | [3] -0.006 | quisinostat 0.137 | tipifarnib -0.015 | [4] 0.003 | [5] 0.023 | [6] 0.052 | [7] 0.025 | vorinostat 0.122 | silmitasertib 0.019 | [8] 0.035 | entospletinib 0.029

SLC38A1 (UniProt Q9H2H9)
inactive: nilotinib -0.001 | [1] 0.007 | dasatinib 0.001 | [2] -0.002 | [3] -0.041 | quisinostat -0.123 | tipifarnib -0.032 | [4] -0.015 | [5] 0.001 | [6] -0.024 | [7] -0.015 | vorinostat 0.099 | silmitasertib 0 | [8] 0.008 | entospletinib -0.015

SLC7A6OS (UniProt Q96CW6)
inactive: nilotinib 0.021 | [1] 0.088 | dasatinib 0.002 | [2] 0.127 | [3] -0.013 | quisinostat 0.013 | tipifarnib 0.026 | [4] -0.031 | [5] -0.015 | [6] -0.112 | [7] -0.002 | vorinostat 0.046 | silmitasertib 0.013 | [8] 0 | entospletinib -0.022

SLK isoform 2 (UniProt Q9H2G2)
inactive: nilotinib -0.036 | [1] 0.02 | dasatinib 0.107 | [2] 0.028 | [3] -0.109 | quisinostat -0.013 | tipifarnib 0.033 | [4] 0.11 | [5] -0.005 | [6] -0.027 | [7] -0.005 | vorinostat -0.036 | silmitasertib 0.205 | [8] 0.008 | entospletinib 0.017

SLC25A31 (UniProt Q9H0C2)
inactive: nilotinib 0.014 | [1] 0.012 | dasatinib -0.003 | [2] -0.009 | [3] -0.007 | quisinostat -0.003 | tipifarnib 0.009 | [4] -0.031 | [5] 0.027 | [6] -0.02 | [7] -0.017 | vorinostat 0.007 | silmitasertib 0.001 | [8] -0.039 | entospletinib 0.037

SLC5A3 (UniProt P53794)
inactive: nilotinib 0.008 | [1] -0.004 | dasatinib 0.02 | [2] -0.028 | [3] 0.006 | quisinostat -0.096 | tipifarnib 0.008 | [4] 0.028 | [5] -0.03 | [6] -0.007 | [7] 0.053 | vorinostat 0.006 | silmitasertib -0.026 | [8] 0.018 | entospletinib 0.008

SLC25A13 isoform 2 (UniProt Q9UJS0)
inactive: nilotinib 0.026 | [1] -0.011 | dasatinib 0.016 | [2] -0.012 | [3] -0.023 | quisinostat 0.054 | tipifarnib -0.018 | [4] 0.012 | [5] -0.02 | [6] -0.017 | [7] 0.01 | vorinostat 0.053 | silmitasertib -0.033 | [8] -0.022 | entospletinib 0.023

SLC9A3R2 (UniProt Q15599)
inactive: nilotinib -0.001 | [1] -0.002 | dasatinib 0.027 | [2] 0.014 | [3] 0.023 | quisinostat -0.04 | tipifarnib -0.017 | [4] 0.021 | [5] -0.002 | [6] -0.005 | [7] 0.072 | vorinostat 0.1 | silmitasertib -0.046 | [8] 0 | entospletinib -0.008

SLC7A5 (UniProt Q01650)
inactive: nilotinib 0.022 | [1] 0.008 | dasatinib 0.055 | [2] 0.014 | [3] 0.008 | quisinostat -0.106 | tipifarnib 0.003 | [4] 0 | [5] -0.029 | [6] -0.003 | [7] 0.034 | vorinostat 0.109 | silmitasertib -0.04 | [8] 0.013 | entospletinib 0.03
